From ChEMBL document CHEMBL3414523, “FimH antagonists: bioisosteres to improve the in vitro and in vivo PK/PD profile” (J Med Chem, 2015) come the findings set out here.

In brackets after ≈: the same amount, converted by molar mass.

A word on the solubility (kinetic): it is solubility judged after dilution from a stock solution rather than from solid. By logD is commonly meant the decadic logarithm of the distribution of all forms, ionised or not, between an organic phase and buffer at a given pH.

A short description of data set [1]: physchem. The note with it: buffer, pH 7.4.
A short description of data set [2]: physchem. The note with it: octanol/water, pH 7.4.
Data set [3] can be described thus: physchem. Particulars: buffer, pH 3.

Consider `CNS(=O)(=O)c1ccc(-c2ccc(O[C@H]3O[C@H](CO)[C@@H](O)[C@H](O)[C@@H]3O)cc2)cc1`, for which the solubility (kinetic) at 15 h, 500 µM in “physchem [1]” is > 250 µg/mL. The compound also displayed a logD at 2 h, 1 µM in the data set “physchem [2]” of 0.7.
As to `OC[C@H]1O[C@H](Oc2ccc(-c3ccc(-c4nnn[nH]4)cc3)cc2)[C@@H](O)[C@@H](O)[C@@H]1O`, the solubility (kinetic) at 15 h, 500 µM in “physchem [3]” is > 150 µg/mL; in “physchem [1]”, 273 µg/mL (≈ 682 µM). Moreover, in “physchem [2]”, the logD at 2 h, 1 µM is -1.4.
